The text below walks through data of PubChem BioAssay AID330 (DTP/NCI, 2004).

The list is a part of this screen's results and no random one: it covers a few groups of compounds. Other doses and runs of a compound may be missing. T/C gives the treated animals as a percentage of the vehicle group. For survival time, the PubChem record calls one and a half times the control and up active, and a quarter to a half above the control has no call in these data; cut-offs in other NCI protocols can differ. Schedules are NCI's codes, taken here to give the interval after Q, in days (D) or hours (H), and the number of doses after X. Some doses were run more than once; the values are given in rising order. Some T/C values are marked as having no survivor count here; that says nothing about deaths at the dose.

The test system of this experiment is P388 leukemia ip, CD2F1 mice, survival T/C. The experiment in a line: NCI In Vivo Anticancer Drug Screen. Data for tumor model P388 Leukemia (intraperitoneal) in CD2F1 (CDF1) mice. To be noted: T/C endpoint: median survival time, higher T/C = longer survival.
The mark [1] stands for this setting: dose: 50.0 mg/kg/injection, schedule: Q01DX009 (ip), vehicle: saline with Tween-80.
Setting [2] is: dose: 100.0 mg/kg/injection, schedule: Q01DX009 (ip), vehicle: saline with Tween-80.

As for `CCOC(=O)N1CCC(=O)CC1`, the T/C is, setting by setting: (dose: 25.0 mg/kg/injection, schedule: Q01DX009 (ip), vehicle: other) 106 % of control [survivor count not shown]; (dose: 50.0 mg/kg/injection, schedule: Q01DX009 (ip), vehicle: other) 100 % of control [survivor count not shown]; (dose: 100.0 mg/kg/injection, schedule: Q01DX009 (ip), vehicle: other) 99 % of control [survivor count not shown]; (dose: 200.0 mg/kg/injection, schedule: Q01DX009 (ip), vehicle: other) 103 % of control [survivor count not shown].

Take `ClCCN1[C@@H](CCl)CC[C@@H]1c1ccccc1`: the T/C (dose: 1.56 mg/kg/injection, schedule: Q01DX005 (ip), vehicle: distilled water + alcohol) is 116 % of control; the T/C (dose: 3.12 mg/kg/injection, schedule: Q01DX005 (ip), vehicle: distilled water + alcohol) was 128 and 133 % of control; the T/C (dose: 6.25 mg/kg/injection, schedule: Q01DX005 (ip), vehicle: distilled water + alcohol) was 121 and 142 % of control.

As to `NC(Cc1cccc(N(CCCl)CCCl)c1)C(=O)O` (stereo unspecified), the T/C by setting is: (dose: 3.12 mg/kg/injection, schedule: Q01DX001 (ip), vehicle: Klucel (hydroxypropylcellulose) (HPC)) 184 % of control [survivor count not shown]; (dose: 6.25 mg/kg/injection, schedule: Q01DX001 (ip), vehicle: Klucel (hydroxypropylcellulose) (HPC)) 173 [survivor count not shown] and 266 % of control [survivor count not shown]; (dose: 12.5 mg/kg/injection, schedule: Q01DX001 (ip), vehicle: Klucel (hydroxypropylcellulose) (HPC)) 208 [survivor count not shown] and 272 % of control [survivor count not shown]; (dose: 12.5 mg/kg/injection, schedule: Q01DX001 (ip), vehicle: saline) 274 % of control [survivor count not shown]; (dose: 25.0 mg/kg/injection, schedule: Q01DX001 (ip), vehicle: Klucel (hydroxypropylcellulose) (HPC)) 260 % of control [survivor count not shown].

`BrCCN(CCBr)c1ccccc1`: the T/C reads like this: (dose: 1.56 mg/kg/injection, schedule: Q01DX009 (ip), vehicle: Klucel (hydroxypropylcellulose) (HPC)) 146 % of control [survivor count not shown]; (dose: 3.13 mg/kg/injection, schedule: Q01DX009 (ip), vehicle: Klucel (hydroxypropylcellulose) (HPC)) 172 % of control [survivor count not shown]; (dose: 6.25 mg/kg/injection, schedule: Q01DX009 (ip), vehicle: Klucel (hydroxypropylcellulose) (HPC)) 133 [survivor count not shown] and 219 % of control [survivor count not shown]; (dose: 12.5 mg/kg/injection, schedule: Q01DX009 (ip), vehicle: Klucel (hydroxypropylcellulose) (HPC)) 135 [survivor count not shown] and 169 % of control [survivor count not shown].

Turning to `Cc1cc(N(CCCl)CCCl)ccc1C=O`, the T/C was 89 [survivor count not shown] and 96 % of control [survivor count not shown] (dose: 25.0 mg/kg/injection, schedule: Q01DX009 (ip), vehicle: saline with Tween-80); 114 [survivor count not shown], 125 [survivor count not shown], 127 % of control [survivor count not shown] under setting [1]; 98 [survivor count not shown], 147 [survivor count not shown], 154 % of control [survivor count not shown] under setting [2].

`O[C@@H](CNCCCl)[C@@H](O)CNCCCl`: the T/C is, setting by setting: (dose: 10.0 mg/kg/injection, schedule: Q01DX009 (ip), vehicle: saline sonified) 186 % of control [survivor count not shown]; (dose: 20.0 mg/kg/injection, schedule: Q01DX009 (ip), vehicle: saline sonified) 254 % of control [survivor count not shown]; (dose: 26.4 mg/kg/injection, schedule: Q04DX003 (ip), vehicle: saline with Tween-80) 204 % of control [survivor count not shown]; (dose: 37.5 mg/kg/injection, schedule: Q04DX003 (ip), vehicle: saline) 158 % of control [survivor count not shown]; (dose: 40.0 mg/kg/injection, schedule: Q01DX009 (ip), vehicle: saline sonified) 95 % of control [survivor count not shown]; (dose: 40.0 mg/kg/injection, schedule: Q04DX003 (ip), vehicle: saline with Tween-80) 213 % of control [survivor count not shown]. The T/C (dose: 60.0 mg/kg/injection, schedule: Q04DX003 (ip), vehicle: saline with Tween-80) was 209 % of control [survivor count not shown].

For `NC1CCCCC1.O=P(O)(NC1CCCCC1)N(CCCl)CCCl`, the T/C under setting [1] was 115 % of control [survivor count not shown]; the T/C under setting [2] was 125 % of control [survivor count not shown]; the T/C (dose: 132.0 mg/kg/injection, schedule: Q01DX009 (ip), vehicle: saline) was 95 % of control [survivor count not shown]; the T/C (dose: 200.0 mg/kg/injection, schedule: Q01DX009 (ip), vehicle: saline with Tween-80) was 150 % of control [survivor count not shown]; the T/C (dose: 200.0 mg/kg/injection, schedule: Q01DX009 (ip), vehicle: saline) was 100 % of control [survivor count not shown].
